From the supplement of paper PMC5949888
± gives the standard deviation of the averaged measurements. Most values lie at the floor of the assay. Slopes are relative: functional sequences can read slightly below zero.

system: Saccharomyces cerevisiae PS128 hsf1 delta, HSF1(1-493) fusion; test: growth estimate (transactivation domain function in HSF1 fusion, heat-shock survival) (a.u. (slope of normalised read count over time)); higher = stronger growth at 37°C, i.e. more transactivation activity; conditions: library: random library

Substance | growth estimate
LVI | -0.248
AHDGGCLVARS | < -0.25
TRLGSSHSADNMEKLFGP | < -0.25
GGKG | < -0.25
ATR | < -0.25
VRKAGSGLHFASEQTNMIVT | < -0.25
RVSGSVQ | -0.246
GLGTNWFSVQ | < -0.25
LQDRFFYLCLGVRLVSGRE | < -0.25
VSLLGLNIGTCGGRGTRRGL | -0.0557
FWGLI | < -0.25
YVRSTLEQSYTT | < -0.25
NGRTWPERRATALRGGNPGG | < -0.25
AGMKPGSSGNAV | < -0.25
RDVSTTILYGRRSGDPCSQR | < -0.25
GLIRVKDYARWTYLVRPWER | < -0.25
LVQEL | -0.241
YALRINAIVPVLNTQYFQDH | < -0.25
DSDVGTHPIIWIVT | < -0.25
CNRLTLAFQSDRIGPSEKGR | < -0.25
ICRSSPGRQSRLCVE | < -0.25
SPRSHPKRFQSTAY | < -0.25
RTRIQYRPGMGAFDVNSLG | < -0.25

Substance | growth estimate
QGREEGPPTGVR | < -0.25
LAVRYPGYPWGRPRGGVRHH | < -0.25
TSCRVYWHKA | < -0.25
VARS | < -0.25
GKIHHLG | < -0.25
IYSWALRRCSGLDLQNKLRG | < -0.25
PIRRSVVVILKLIAHQFDQG | < -0.25
GPGIRSYRNLAGGYLVCLHP | < -0.25
GRLFWAFRRYYMANPVSRQC | < -0.25
DELGWQRDT | < -0.25
THRYPHSHIPTTRNGFGFTV | -0.135
DSVPHRFYFVSPFVYHVSLV | < -0.25
SIIRWLSHMSDLFGRDIFGD | < -0.25
SLDT | < -0.25
GNLLAHRRLGSVRGRLDSRL | < -0.25
FTGPNGKITTRRLVLSNGWI | < -0.25
LRKGVGVCN | < -0.25
QYRTSGDL | < -0.25
LITCFVSRGGRDPVCLPISL | < -0.25
LTPD | < -0.25
SFVYREHCTSGTGIAGPRSS | < -0.25
ADTRVSGVFRGSASVLLVWP | < -0.25
IRAPARMGPFLHQMKVNSRV | < -0.25

Given as tab-separated lines: part of the list above.
Substance	growth estimate
SIIRWLSHMSDLFGRDIFGD	< -0.25
SLDT	< -0.25

Next part

Substance | growth estimate
MQGGE | < -0.25
LDPDQVHVLASLKIVISECS | < -0.25
ETCNETGVKQPGTTRARCDG | < -0.25
VGLCENESLDDHHRTLGVDH | < -0.25
RCCTEISGTRRFIQSFGERM | < -0.25
LRFTDAGHFQATGSEFFGRL | -0.224
YGGPLDLRFWFGEVSRVCFS | < -0.25
LPFRRVADRVGGLARREEYG | 0.0721
SGHKKKG | < -0.25
NSDSRVPGSLDCRY | < -0.25
VKRI | < -0.25
ENPGGRGGTWH | < -0.25
DIAD | < -0.25
IIRLTAGSV | < -0.25
KEAPNIRWT | < -0.25
GFLEEVISKNSSAVIPWALL | -0.207
SGCRIFYSMYHPEVPPLADS | < -0.25
VVAPLHKRGKREWLDSILVK | < -0.25
LLNPGRPTSDKRKGYGSGPS | < -0.25
IHTEVSTAAQICTDE | < -0.25
GVCFDS | < -0.25
AGCKQSLSGQPLPAPTQGFH | < -0.25
FRLLIAWFVSCWARRIVI | < -0.25

Substance | growth estimate
NLS | -0.238 ± 0.017
LFKDYTSIQLMDGGNGTCGV | < -0.25
EMSLLLGFANSGL | < -0.25
DVKPRNSLIHC | < -0.25
SLSPSDGHRGGVSYFGDLPR | < -0.25
KCHSR | < -0.25
KCSRDFSHLAVLTRSVPHFR | < -0.25
PYLA | < -0.25
ETGGTRDICVFHRSVPLLNS | < -0.25
TQGPT | < -0.25
FLGETQIET | < -0.25
TSVVG | < -0.25
PTASRL | < -0.25
PHQITCCSDQHSSFT | < -0.25
IGLVEGGPPHCLLLSAVVES | < -0.25
CDAPPVLWGTI | < -0.25
SRAHEFERVGRSVLACRRPL | < -0.25
AGYAAKVLRIDWWGREVIRG | < -0.25
DASRSEEG | -0.0747
SRVVDYYLGMQWPCLGCN | < -0.25
WISQVKTSEGSCGSLNMSYR | < -0.25
HWWLPRATRSFPRKRCAPLD | < -0.25
EASYVSVLRFGVLLLNSVTT | < -0.25

Substance | growth estimate
WIRVTNPAGIYQLKPRSVLL | < -0.25
ILGGFGRDLFGPWGLKGL | < -0.25
VIIQAMITEMYPT | < -0.25
SAVQCIQATGNVRKTACHTP | -0.246
TGESLSEKMHIISLCNNYAR | < -0.25
GPWRDLPFCDSRLRTGRVRS | < -0.25
IADHGSHVGGTKTSQIDAIN | < -0.25
WGGPSSAWASTSLRTPVCWC | < -0.25
FLRWKFTG | < -0.25
LNNNVLSFV | < -0.25
PEPSTSA | < -0.25
LCPKYRGHGASPW | < -0.25
HLVFGFIR | < -0.25
VLRQGLNITVQNGTKTLPSA | < -0.25
AAEDGNDLLIFLDTRRDRRT | < -0.25
SHGRGEFASKLWMMLSYHFD | < -0.25
APLSQFGTTLLAIALNVTIY | < -0.25
VIPSRSGKGASFG | < -0.25
PRMSVRFE | < -0.25
LVIDHTYAGLTLESDSCMKH | < -0.25
GRSLLEVGPTRWCKWS | < -0.25
GKSACS | < -0.25
RMLVKRSQRV | < -0.25

A few values from above:
In growth estimate, VKRI has the entry < -0.25
In growth estimate, WISQVKTSEGSCGSLNMSYR has the entry < -0.25
In growth estimate, CNRLTLAFQSDRIGPSEKGR has the entry < -0.25
In growth estimate, IGLVEGGPPHCLLLSAVVES has the entry < -0.25

Remaining list, next part:

Substance | growth estimate
PGVRIVHLSWAGC | < -0.25
FGLESYGRSPDCIVLVFQTH | < -0.25
FQPHTAAWYPLVFR | < -0.25
SKRHSSHTIRRLTSGRI | < -0.25
RLSPIVHV | < -0.25
CQVKNLAASRCH | < -0.25
LTPVSFAVEFEV | < -0.25
LQGRFAQINQGRPRSWG | < -0.25
EEWEQGKDLLHVTRNVSMPQ | < -0.25
RLLNT | < -0.25
SRSTLGDFG | < -0.25
GGGVFPLVEKGQLESWCLDG | < -0.25
TTN | < -0.25
TWAEA | < -0.25
ESTINKGCWCTRQWIG | < -0.25
KQLHVVMRAFWSPGHISQAR | < -0.25
GHPIQGQVRVGSQRGYVVSA | -0.243
RFPSIVFGGRVDVVITLDVE | < -0.25
IWLA | < -0.25
VRDLFDLCGE | < -0.25
RSKWAGELLRGAKFKDMLNN | < -0.25
VDLRTPVLAPTGRGVVCQSQ | < -0.25
SESVRASESRSSHTLYYQGY | < -0.25

Substance | growth estimate
VGE | < -0.25
RLGVD | < -0.25
LSTIRFMICRTPIMASGRRG | < -0.25
ANQGGLYPVRPVRR | < -0.25
SVIRLFPQGVTDFGWNRGTR | < -0.25
MDYLI | < -0.25
CHLMSTEWCPRPSAQLTCKD | < -0.25
RESHSYL | < -0.25
SSCKERGSCSVRTSLSGPES | -0.241
APPPLGTLTAETKRKTMEFR | < -0.25
TVWIVGFEHCVAWHVLYYGP | < -0.25
STGYRPTISSPAVRSKVVIR | < -0.25
GRLIYF | < -0.25
GAPGEPGPADNYI | < -0.25
LNYRQNLSAIREERCQFLTL | < -0.25
AGTSKSS | < -0.25
LVCGTDWRGVSRPVGRL | < -0.25
CSRELNRERVGGKSRVVICG | < -0.25
LSPEQYAGQVGTVESSIWEV | -0.237
FPFFRLRVAGHC | < -0.25
